Where a name gives a salt, the structure may show the parent alone. This is one part of the list. This data set is noisy: repeats of one test often differ as much as different tests do.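 Human kidney-derived cells stably carry a construct in which eight TEAD-binding elements drive luciferase, measured by luminescence in a drug-repurposing library screen. A hit is any compound whose signal exceeds the plate mean by more than five robust Z scores.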

This test deals with HEK293A TEAD-LUC reporter. Put plainly: TEAD-luciferase reporter activity (YAP activation), robust Z score vs plate; higher = stronger YAP/TEAD activation. Particulars: 24 h.

For `O=C(O)CCc1nc2ccccc2[nH]1` [procodazol], the TEAD-luciferase reporter activity is inactive: -0.0815 (compound concentration: 200 nM), inactive: -0.664 (compound concentration: 2 uM) and inactive: -0.29 (compound concentration: 10 uM).
On the same counts, the results for `CC[C@H]1OC(=O)[C@H](C)C(=O)[C@H](C)[C@@H](OC2O[C@H](C)C[C@H](N(C)C)[C@H]2O)[C@@](C)(OC)C[C@@H](C)C(=O)[C@@H](C)[C@H]2N(CCCCn3cnc(-c4cccnc4)c3)C(=O)O[C@]12C` (stereo partly drawn) [Telithromycin] are inactive: -1.07, inactive: -1.6 and inactive: 0.0781.
For `O=C(CC1CCN(CCOc2cccc3c2OCCO3)C1)c1ccc(F)cc1` (stereo not drawn) the same measures were inactive: 1.15, inactive: -1.05 and inactive: 2.14.
In the case of `O=C(O)Cc1cscc1Nc1c(Cl)cccc1Cl` [Eltenac], the TEAD-luciferase reporter activity is, setting by setting: (compound concentration: 200 nM) inactive: 0.552; (compound concentration: 2 uM) inactive: -1.83; (compound concentration: 10 uM) inactive: 0.914.
As to `CN1CCN(C2=Nc3ccccc3Sc3ccc(Cl)cc32)CC1` [Clotiapine], where the note is “compound concentration: 2 uM”, the TEAD-luciferase reporter activity is inactive: -2.19.
For the molecule `CN1CCN(C2=Nc3ccccc3Sc3ccc(Cl)cc32)CC1` [Clothiapine], the TEAD-luciferase reporter activity is inactive: -0.597 (compound concentration: 200 nM) and inactive: 1.15 (compound concentration: 10 uM).
`COc1ccccc1N1CCN(CC(O)COc2cccc3ccccc23)CC1` (stereo not drawn) [naftopidil]: the TEAD-luciferase reporter activity (compound concentration: 2 uM) was inactive: -0.106.
Regarding `COc1ccccc1N1CCN(CC(O)COc2cccc3ccccc23)CC1` (stereo not drawn), the TEAD-luciferase reporter activity is inactive: -1.74 (compound concentration: 200 nM) and inactive: 4.47 (compound concentration: 10 uM).
Take `CCCN(CCC)C(=O)C1=Cc2ccc(-c3ccc(C(=O)N4CCCC4)cc3)cc2NC(N)=C1` [Motolimod]: the TEAD-luciferase reporter activity (compound concentration: 2 uM) is inactive: 0.652.
Regarding `C#CC1(O)CCC2[C@@H]3CCc4cc(O)cc(C)c4C3CC[C@@]21C` (stereo partly drawn) [1-Methyl ethynyl estradiol], the TEAD-luciferase reporter activity is inactive: 3.76 (compound concentration: 200 nM), inactive: 1.04 (compound concentration: 2 uM) and inactive: 0.919 (compound concentration: 10 uM).
In the case of `COc1ccc(F)cc1C[C@@](O)(C1CCOCC1)[C@@H]1CNCCO1` [Edivoxetine HCl], the TEAD-luciferase reporter activity runs as follows: (compound concentration: 200 nM) inactive: -1.36; (compound concentration: 10 uM) inactive: -0.626.
Turning to `O=C(O)c1nn(-c2ccc(S(=O)(=O)O)cc2)c(O)c1/N=N/c1ccc(S(=O)(=O)O)cc1`, the TEAD-luciferase reporter activity (compound concentration: 200 nM) was inactive: -2.42, the TEAD-luciferase reporter activity (compound concentration: 2 uM) is inactive: -0.608 and the TEAD-luciferase reporter activity (compound concentration: 10 uM) was inactive: -0.56.
On the same counts, the results for `C=C1CC[C@H](O)C/C1=C/C=C1\CCC[C@]2(C)[C@@H]([C@H](C)CCCC(C)C)CC[C@@H]12` [Cholecalciferol] are inactive: -0.75, inactive: 0.276 and inactive: 4.19.
On the same counts, the results for `CC1(C)[C@@H](OC(=O)CCC(=O)O)CC[C@]2(C)C3=CC[C@@H]4[C@@H]5C[C@@](C)(C(=O)O)CC[C@]5(C)CC[C@@]4(C)[C@]3(C)CC[C@@H]12` are inactive: -0.52, inactive: 1.66 and inactive: -0.204.
On the same counts, the results for `O=C(O)C1CSC(c2ccccc2O)N1C(=O)CCS` (stereo not drawn) are inactive: -0.811, inactive: -0.715 and inactive: -0.435.
Consider `CSc1ccccc1N(Cc1ccc(C(F)(F)F)cc1)C(=O)CN(CCN(C)C)C(=O)OCC(C)C` [flosatidil], for which the TEAD-luciferase reporter activity runs as follows: (compound concentration: 200 nM) inactive: -0.704; (compound concentration: 2 uM) inactive: 3.58; (compound concentration: 10 uM) inactive: 2.79.
For `CC(N/C(=N/C#N)Nc1ccncc1)C(C)(C)C` (stereo not drawn) [Pinacidil monohydrate], the TEAD-luciferase reporter activity runs as follows: (compound concentration: 200 nM) inactive: 1.1; (compound concentration: 10 uM) active: 6.56.
As for `CC(N/C(=N/C#N)Nc1ccncc1)C(C)(C)C` (stereo not drawn) [pinacidil], the TEAD-luciferase reporter activity (compound concentration: 2 uM) is inactive: -1.16.
Regarding `O=C(O)CCc1ccc(S(=O)(=O)CCc2c(CCNS(=O)(=O)Cc3ccccc3C(F)(F)F)n(C(c3ccccc3)c3ccccc3)c3ccc(Cl)cc23)cc1`, the TEAD-luciferase reporter activity was inactive: -1.42 (compound concentration: 200 nM), inactive: -0.468 (compound concentration: 2 uM) and inactive: 0.337 (compound concentration: 10 uM).
For `c1ccc(NCc2nc3ccccc3[nH]2)cc1` the same measures were inactive: 0.00372, inactive: 3.85 and inactive: 0.206.
`CC(C)NNC(=O)c1ccncc1`: the TEAD-luciferase reporter activity (compound concentration: 200 nM) is inactive: 2.61, the TEAD-luciferase reporter activity (compound concentration: 2 uM) is inactive: -1.09 and the TEAD-luciferase reporter activity (compound concentration: 10 uM) is inactive: -1.71.
On the same counts, the results for `CC[n+]1c(/C=C/c2ccc(N3CCCC3)cc2)cccc1/C=C/c1ccc(N2CCCC2)cc1` are inactive: -1.29, inactive: 1.95 and inactive: 3.73.
On the same counts, the results for `O=C(O)c1cn(C2CC2)c2cc(N3CCOCC3)c(F)cc2c1=O` are inactive: 0.759, inactive: -0.469 and inactive: -0.218.
As for `C/C(=C/CCC1(C)C2CC3C(C2)C31C)CO` (stereo not drawn) [alpha-Santalol], the TEAD-luciferase reporter activity by setting is: (compound concentration: 200 nM) inactive: 0.492; (compound concentration: 2 uM) inactive: -0.843; (compound concentration: 10 uM) inactive: -0.343.
On the same counts, the results for `COc1cc(OC)c2c(=O)[nH]c(-c3cc(C)c(OCCO)c(C)c3)nc2c1` [Apabetalone] are inactive: -0.897, inactive: 1.72 and inactive: -0.49.
On the same counts, the results for `CC1OC2(CCCCC2Oc2cccc(Cl)c2)NC1=O` (stereo not drawn) are inactive: -1, inactive: -1.9 and inactive: -0.613.
For `CCc1nc(N)nc(N)c1-c1ccc(Cl)c(Cl)c1` the same measures were inactive: -2.12, inactive: -1.2 and inactive: -1.37.
Regarding `O=c1cc(NCCCN[C@@H]2CCOc3c(Br)cc(Br)cc32)[nH]c2ccsc12`, the TEAD-luciferase reporter activity runs as follows: (compound concentration: 200 nM) inactive: -0.998; (compound concentration: 2 uM) inactive: -0.577; (compound concentration: 10 uM) inactive: -0.826.
On the same counts, the results for `CC(C)(C)C(=O)NNC(=O)/C=C\n1cnc(-c2cc(C(F)(F)F)cc(C(F)(F)F)c2)n1` are inactive: 1.03, inactive: -1.08 and inactive: -0.944.
On the same counts, the results for `CS(=O)(=O)c1ccc(-c2cnc(N)c(-c3ccc(C(F)(F)F)nc3)c2)cc1` are inactive: -0.143, inactive: -0.363 and inactive: -0.398.
On the same counts, the results for `O=C(c1ccc(F)c(F)c1Nc1ccc(I)cc1F)N1CC(O)([C@@H]2CCCCN2)C1` [Cobimetinib] are inactive: -1.75, inactive: -1.73 and inactive: 3.32.
On to `O=C(NO)c1cc(Br)ccc1O`, for which the TEAD-luciferase reporter activity was inactive: -2.1 (compound concentration: 200 nM), inactive: -0.922 (compound concentration: 2 uM) and inactive: 0.116 (compound concentration: 10 uM).
With `CC(=O)Oc1cc(C(F)(F)F)ccc1C(=O)O` [triflusal], the TEAD-luciferase reporter activity runs as follows: (compound concentration: 200 nM) inactive: 0.0901; (compound concentration: 2 uM) inactive: -0.641; (compound concentration: 10 uM) inactive: -0.414.
On to `Cc1ccc(C(=O)c2cc(O)c(O)c([N+](=O)[O-])c2)cc1` [tolcapone], for which the TEAD-luciferase reporter activity runs as follows: (compound concentration: 200 nM) active: 5.98; (compound concentration: 2 uM) inactive: 0.233; (compound concentration: 10 uM) inactive: 0.519.
On the same counts, the results for `CCCCCCCCCCCCCCCC(=O)NC1CC(O)C(O)NC(=O)C2C(O)C(C)CN2C(=O)C(C(O)CC(N)=O)NC(=O)C(C(O)C(O)c2ccc(O)c(OS(=O)(=O)[O-])c2)NC(=O)C2CC(O)CN2C(=O)C(C(C)O)NC1=O` (stereo not drawn) are inactive: -1.19, inactive: -0.286 and inactive: 0.133.

(Values after the supplement of paper PMC10735217.)
